In general, IC50 refers to the concentration that inhibits the measured activity by half.

Holding throughout (type): cell-based
The test system of experiment [1] is eIF4E:eIF4G^604–646 complex. Briefly: NanoBit eIF4E:eIF4G^604–646 protein complementation assay in HEK293 cells. As to conditions: for IC50: HEK293, 4 h treatment, read-out: IC50, NanoBit eIF4E:eIF4G^604–646 signal. How it is done: Opaque 96-well plates were seeded with 20,000 HEK293 cells per well in DMEM and 10% FCS. Transfections in 96-well plate format were performed using FUGENE6 (Roche) with 100 ng of the indicated plasmid vectors per well as outlined in the manufacturer’s instructions (Fig. 1). Twenty-four hours after transfection, the medium was replaced with 100 μl of Opti-MEM I cell media containing 0% FCS with no added red phenol (Thermo Fisher Scientific) and luminescence activity assayed (as outlined in “NanoBit and cell viability experiments” section). Transfections utilising 4EBP1 constructs were performed with either 50 ng of the indicated construct or empty vector.
(§1) Twenty-four hours prior to transfection, cells (HEK293, PANC-1 or PC-3) were seeded at a cell density of 800,000 cells per well of a six-well plate (Thermo Fisher Scientific). Transfections in six-well plates were performed using Lipofectamine 3000 (Thermo Fisher Scientific) with 3 μg of the indicated plasmid vectors per well according to the manufacturer’s instructions. For knockdown experiment, siRNA Ctrl or 4EBP1 at a final concentration of 100 nM were included in the transfection mixture. Transfections utilising GFP and GFP-MYC contained 1 μg of each vector or empty vector, respectively. In the case of transfections utilising any of the 4EBP1 constructs described, only 0.5 μg of each vector or empty vector was used, respectively. After a 24- or 48-h (as indicated in the figure legends) incubation period, the medium was removed and cells were washed with PBS saline. […]
(§2) Either HEK293, PC-3 or PANC-1 cells were spun down at 1000 rpm for 5 min at room temperature. […] The plates were then shaken for 1 min at 22 °C and luminescence assessed after additional 50 min using an Envision Multi-Plate reader (Perkin-Elmer). Plates were then multiplexed with CellTiter-GLO 2.0 reagent (PROMEGA) and cellular viability determined according to the manufacturer’s instruction. […]

Experiment [2] relates to eIF4E S209 phosphorylation. As to the kind of experiment: AlphaScreen Surefire eIF4E S209 phosphorylation assay in PC-3 cells. As to conditions: PC3 cells, 4E-BP1 protein levels high, normalised to GAPDH; read-out: pEIF4E SureFire (IC50). How it is done:
(§3) Ninety-six-well plates were seeded at 30,000 cells per well with non-transfected PC-3, PANC-1 or HKEK293 cells in DMEM with 10% FCS and incubated overnight. Cells were then washed with PBS and the media replaced with OPTI-MEM containing no serum. Cells were then treated with the indicated compounds. Controls were performed with DMSO vehicle treatments. Four hours post treatments, cells were lysed with 50 μl of passive lysis buffer (PerkinElmer) for 15 min and 10 μl of lysate from each well was transferred into a white bottom 384-well plate. GAPDH and pS209 eIF4E levels were assessed according to the manufacturer’s instructions (PerkinElmer) for each sample. Luminescence was measured using an Envision Multiplate reader (PerkinElmer).
On the technique in general: Alpha assays give light when donor and acceptor beads are brought close together.

Experiment [3] concerns eIF4E:eIF4G^604–646 complex. Briefly: NanoBit eIF4E:eIF4G^604–646 protein complementation assay in PC-3 cells. As to conditions: PC3 cells, 4E-BP1 protein levels high; read-out: NanoBit eIF4E:4G (IC50). How it is done: as §1, §2
Experiment [4] deals with eIF4E S209 phosphorylation. Briefly: AlphaScreen Surefire eIF4E S209 phosphorylation assay in PANC-1 cells. As to conditions: 4E-BP1 protein levels low, normalised to GAPDH. How it is done:
as §3

In experiment [5] the test system is eIF4E:eIF4G^604–646 complex. Briefly: NanoBit eIF4E:eIF4G^604–646 protein complementation assay in PANC-1 cells. As to conditions: for IC50: PANC cells, 4E-BP1 protein levels low, read-out: NanoBit eIF4E:4G (IC50). How it is done:
Twenty-four hours prior to transfection, cells (HEK293, PANC-1 or PC-3) were seeded at a cell density of 800,000 cells per well of a six-well plate (Thermo Fisher Scientific). Transfections in six-well plates were performed using Lipofectamine 3000 (Thermo Fisher Scientific) with 3 μg of the indicated plasmid vectors per well according to the manufacturer’s instructions. For knockdown experiment, siRNA Ctrl or 4EBP1 at a final concentration of 100 nM were included in the transfection mixture. Transfections utilising GFP and GFP-MYC contained 1 μg of each vector or empty vector, respectively. In the case of transfections utilising any of the 4EBP1 constructs described, only 0.5 μg of each vector or empty vector was used, respectively. After a 24- or 48-h (as indicated in the figure legends) incubation period, the medium was removed and cells were washed with PBS saline. Cells were then either lysed directly for immunoprecipitation experiments or were trypsinised and re-suspended in Opti-MEM media with 0% FCS to perform NanoBit and cell viability experiments in a 96-well format.
Either HEK293, PC-3 or PANC-1 cells were spun down at 1000 rpm for 5 min at room temperature. Supernatant was then discarded, and cells re-suspended to a density of to 220,000 cells per millilitre in Opti-MEM I cell media containing 0% FBS with no added red phenol. Then 90 μl of the cell re-suspension was added to the wells of a white opaque 96-well plate. Compounds were then titrated onto the 96-well plate using a suitable twofold dilution series from a 10× stock solution containing 10% v/v DMSO. Control wells were also treated with a 10% DMSO only stock solution to yield a final residual DMSO concentration of 1% v/v. The 96-well plates were then incubated for 4 h at 37 °C, with 5% CO2. […] The plates were then shaken for 1 min at 22 °C and luminescence assessed after additional 50 min using an Envision Multi-Plate reader (Perkin-Elmer). Plates were then multiplexed with CellTiter-GLO 2.0 reagent (PROMEGA) and cellular viability determined according to the manufacturer’s instruction. […]

In the case of `CC(C)n1nc(-c2cc3cc(O)ccc3[nH]2)c2c(N)ncnc21` [PP242], the 50% inhibitory concentration (IC50) came out at 9.18 ± 4.25 µM in experiment [1] (listed as PP2442); 0.72 ± 0.04 µM in experiment [1]; 800 ± 400 nM in experiment [2]; 110 ± 20 nM in experiment [3]; 0.07 ± 0.04 µM in experiment [5] (listed as PP2442); 9.18 ± 4.25 µM in experiment [5]. Moreover, in experiment [1] (HEK293, si4EBP1 versus siCtrl), the “Attenuation of potency by siRNA-mediated knockdown of 4EBP1” value is “fivefold”. Besides, the “pEIF4E SureFire (IC50, μM)” value in experiment [4] is listed as “No Inhibition”. Also, the “Activity in PANC cells transfected with 4EBP1^WT vector” value in experiment [5] (PANC cells expressing 4EBP1^WT) is listed as “restored”.

The values are drawn from article PMC6530213, “Monitoring flux in signalling pathways through measurements of 4EBP1-mediated eIF4F complex assembly” (BMC Biology, 2019).
